Results on 104 sequences are retold here after PubChem BioAssay AID1347423 (Functional Genomics Laboratory (NCATS/FGL), 2020).

Hit rate of the full screen: of about 52,000 sequences, about 210 (0.4%) were called active.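 Rule for the calls: active = gene whose silencing raises cell survival under the drug, median off-target-corrected z-score across its silencing RNAs 2 or more; inactive = the rest.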 The list shows a part of the results.

A short description of the experiment: Resistance to Poly (ADP-Ribose) Polymerase inhibitor: Gene Identification via Genome-wide siRNA Screen. As to conditions: mouse BRCA2 R2336H ES cells, olaparib, CellTiter-Glo viability; stronger effect = higher value. From the text:
The role of Poly (ADP-Ribose) Polymerase (PARP) proteins in DNA repair has been elegantly utilized for the synthetic lethality-based treatment of BRCA-deficient tumors by PARP inhibitors. PARP inhibitors are now being used for treatment of BRCA-deficient breast and ovarian cancers. […] While several mechanisms of drug resistance have been identified, majority of these tumors develop drug resistance due to unknown causes. To identified novel regulators of chemo-resistance in BRCA2-mutated cells, we performed a genome wide siRNA library screen. We have found ES cells expressing a hypomorphic allele of BRCA2 to be hypersensitive to PAPP inhibitors (such as olaparib). We used ES cells expressing a mutant allele of BRCA2 that has a single amino acid substitution at position 2336 (arginine to histidine, R2336H). The screen was conducted using an Ambion (Thermo) Silencer Mouse Genome siRNA collection. The library targets 17,575 mouse genes with 3 siRNAs per gene. TET2 (E130014J05Rik) was identified as a top candidate.
Transfections were performed in 384 well plates (Corning 3707). Plates were coated with 0.1% gelatin in H2O overnight at ambient temperature. Gelatin solution was aspirated (BioTek EL406) and siRNAs were printed using a Bravo VPrep liquid handler integrated within a BioCel automation platform (Agilent). Cell viability was measured using CellTiter Glo (Promega). For transfections, […] of serum free media containing Lipofectamine RNAiMax […] was added to wells containing siRNA (0.8pmol). Lipid and siRNA were allowed to complex for 45 min at ambient temperature before addition of 1000 cells in DMEM, 30% FBS to yield final transfection mixtures containing 20 nM siRNA in DMEM, 15% FBS. PARPi (olaparib, AZD2281) was added 48 h post-transfection (500 nM) and viability (CellTiter Glo, Promega) was assayed 72 h later on a PerkinElmer Envision 2104 Multilabel plate reader. Ambion Silencer Select Negative Control #2 was incorporated on all screening plates (16 wells) and the median negative control value on each plate was used for normalization. An siRNA targeting Trp53 was used as a positive control. This control yielded a median protective effect of ~1.9 fold versus negative control throughout the screen. The median absolute deviation (MAD) based z-score was calculated for each siRNA. Genes were then ranked by taking the median value for all siRNAs tested against a given gene. Scores were also adjusted for seed-based off-target effects to help deprioritize likely false positives.
For orientation: In ATP-based viability assays light output follows the ATP content of the culture.
GGCUAAAACUACAAAGAAGTT against Rpl36a: the z-score is inactive: -0.69. For GCUGAAAACUAUGAUGGCCTT against Nfkbib, the z-score is inactive: 0.87. As for AACCUAACCAUUAUCCUCCTT against Olfr803, the figure is inactive: -0.642; as for CCAGAACGCGGAGCAAAUUTT against Sec63, inactive: -0.655; as for GGGUAGUUUUAAUUAAGCCTT against Lims1, inactive: -0.11.

As to GCUCUCGAGAGCCAAAGAATT against BC024582, the z-score is inactive: -1.6. As for “CGACAUCUCUAAAGUUAAATT against 4933424A10Rik”, the z-score was inactive: -0.0655. The result for “GGCUUCCAGAAUUCAAAUUTT against 1110060F11Rik” reads inactive: -1.07; that for GGCAGUUAUUCAGAAUUGATT against Hirip5, inactive: 0.85.

GGACGAGAACAUCUUAAUCTT against Pim1: the z-score is inactive: 0.127. On to “GGAGGUGUUCAUUGAAGUCTT against D11Ertd603e”, for which the z-score was inactive: 0.0966. As for GGCAGGCAGACGAAUGUUCTT against Tbx1, the figure is inactive: -0.174; as for GGUAUUACCACGACAGGUATT against Usp42, inactive: -0.95; as for GGACUUGGUCAAUCUGACATT against AI841794, inactive: -0.0165. The result for GGAAUUCGCCAACUGGCUGTT against Slc14a1 reads inactive: 0.118; that for GGGCAAUUUGGAGCUUACCTT against Erbb2, inactive: -0.961; that for GACACUACUCACAUCAGAUTT against Hes3, inactive: 0.958. The result for GGUUACCUGUGCUAGAAAATT against Zswim5 reads inactive: -0.494; that for GGUGAAGAGUUCAAACAUCTT against Atp9a, inactive: 0.602. As to GGCUAUGAGUGCCAUAUCCTT against Wfdc1, the z-score was inactive: 1.04.

As to “GGCCGUUCUGUUGACCUUATT against 9230106D23Rik”, the z-score was inactive: -0.161. The result for CCUGCUAUGUAAUAUAGAUTT against Eef2k reads inactive: -0.327; that for GGUGAUCAGCAUGGUGGGUTT against Pold1, inactive: -1.47; that for GGAGCUGUUUGGACCUUCUTT against Tsrc1, inactive: -1.73. As for CGGUAGAGCGCAAAGAUUATT against Nef3, the figure is inactive: -0.348; as for GGGUGAAUUUGAUUCGCUGTT against BC022765, inactive: 0.0055. As for GCAUGCAUUCGUGAAGAAUTT against BC042549, the figure is inactive: -0.938.

GUCUUCUAACCAGGUAAAGTT against Tgoln2: the z-score was inactive: 1.05. The result for “GGCACCUGAGCGAUUUGAUTT against D8Ertd812e” reads inactive: -0.292; that for GGCUGUUUGAGAUAUUAAUTT against Def6, inactive: 1.01.

Turning to CCAAAAGACCAUUGUCGUCTT against BC016495, the z-score is inactive: 0.0729. The result for GCUAACCAGUCAGUUGAUCTT against Mocs1 reads inactive: 0.0786; that for GCUUUCUGAUUCAAAGAUGTT against Dsc3, inactive: 0.295; that for “GCGGAAGAAGGCUUGUUACTT against 4930434E21Rik”, inactive: 0.906. Consider GGUCACGAUUACUUCCCUGTT against Pcdha12, for which the z-score was inactive: -1.4. For the sequence GGAUUUUUAUUCCAGAAGGTT against Fundc1, the z-score was inactive: -0.145. As for GGAAGAGAAAGAAGAGUAATT against Tub, the z-score is inactive: -1.89. The result for “GGUUACCAUCAUUUAGAGATT against 2810458H16Rik” reads inactive: 0.0699; that for GGUUGAUGCUGCUAUUGGGTT against Thap1, inactive: -2.14.

With GGCUAUGGAACAAAGUACUTT against Sostdc1, the z-score is inactive: -1.37.

Turning to GGGUUUCUUUGUGGUCUUGTT against Eif3s5, the z-score is inactive: -3.06. The result for GGCUUCAUCCACAUGCACUTT against Gja5 reads inactive: -0.158. The result for “CCUACUAGAAACUUCCUGATT against 1810009H17Rik” reads inactive: 0.524; that for GGAAAUGUUUAUCACGGUUTT against Scube2, inactive: -0.409; that for GGCUGUUGAACAGGUUAUCTT against Misc12, inactive: 0.309. As for GGAAAUAAACCACCUCUUCTT against Olfr437, the figure is inactive: -1.5. Turning to GGGUUUGACUUUUUGAGGGTT against Fbxo30, the z-score was inactive: 0.23.

As to “GGCUCUUAUUGAUAAAAGCTT against 2310057M21Rik”, the z-score is inactive: 1.29. The result for GGUGACUUGGAAGAGCCCATT against Il1rapl2 reads inactive: 0.26; that for “GGAAGAUGAAAUCUUCAAATT against 2610022K04Rik”, inactive: 1.09. The result for CCAUGGGCAUCAAACAUUCTT against BC049697 reads inactive: -0.184.

Consider CCUUCAUCGUACAUACCAUTT against Actn1, for which the z-score was inactive: 1.46. As for “GGAUACCACUUCAUCACCCTT against A230097C02”, the figure is inactive: -0.858; as for GCUUUUCAUAUCUCUUGCATT against Olfr1385, inactive: -0.352.

Turning to GGUACCAGGAUACGAAUAUTT against Pde10a, the z-score was inactive: -1.27. As for GGUGACUGAGAAAAAUGUUTT against Gfra3, the figure is inactive: -0.0931; as for “GGGCUAUGGUUUUAUCGAATT against 2410104I19Rik”, inactive: -2.42. Regarding CGACGAAUGUCCUGAACAUTT against BC022145, the z-score was inactive: -1.85. As for GCUGUUACCUUGACGAAUATT against Tsc2, the figure is inactive: -0.021; as for CCCACCUUACAUAUAUUGATT against Srr, inactive: -0.793; as for CCAGCAGCCUUCUAACUAUTT against Hnrpa2b1, inactive: 0.399. For the sequence GGCCAACAAUAUAAAAGACTT against Pus3, the z-score was inactive: -0.84. The result for CCGUUAGAGCUGUUAUUUUTT against Olfr556 reads inactive: 0.0968; that for GGCAUCAACUAAACAAUCCTT against Psip1, inactive: 1.25.

GGCAACGAUUGUGACUUAUTT against BC003331: the z-score is inactive: -1.5.

For GGCAUUUGUAAUAUGGAGATT against Keo4, the z-score was inactive: 0.199.

For GGCACACAGCCCUCAAAUUTT against Mrpl30, the z-score is inactive: -0.0287. As to GCAUUACUGUAGGUAAGAGTT against Olfr630, the z-score was inactive: -0.617. As for GGCUCAAGUAUCUAAUCUUTT against Tpm4, the figure is inactive: 0.901; as for GGAUGCAUCUUGGGUACUGTT against V1rg5, inactive: 1.79; as for GGAUUUGUCAAUGCAAUAATT against Olfr1012, inactive: -0.924. As for “GGUCUUGUAUGCUAACUGGTT against D3Ertd330e”, the figure is inactive: -2.53; as for GGAGCUGAGUCCUGAUGGATT against Apod, inactive: 0.0463; as for CCCUUCUAAAAGCUAUAAGTT against Osbpl10, inactive: -0.412. With “GGAGAGAAGUUUAUGAAAGTT against 9930020N01Rik”, the z-score is inactive: -0.653.

In the case of GGCAUUAUGAGCAUCUCGGTT against Tnfrsf11a, the z-score was inactive: -0.308.

As to GGUCUGGGAUACUAGAGCCTT against Prap1, the z-score is inactive: 0.823.

In the case of CCGAACCUUCAGCUACACATT against Keap1, the z-score is inactive: -0.904. As for CGAUUUCAUAUUAACCAGCTT against Atad1, the figure is inactive: 1.85.

Consider GGCCAAAGUCCAUUCAUUCTT against Olfr1120, for which the z-score is inactive: -0.107.

As to “CGUAUCUGUUCAGCUGUACTT against 1810044A24Rik”, the z-score is inactive: -0.263. Regarding “GGAAAAAUGAGCAGAAACUTT against 2700097O09Rik”, the z-score is inactive: -2.24. The result for GGAUUAAACCUUUUAACCGTT against Emilin3 reads inactive: -0.236. As for “GGCGAAAAGCCGUUCCAUUTT against E430018J23Rik”, the figure is inactive: 1.46. The result for “CGCUCUGCCACUUUACCUUTT against 2210010C04Rik” reads inactive: 0.915. Take CGCUUCAUUGAGGAUACAGTT against Acy1: the z-score is inactive: 0.669.

For GCUUUCAGAUGAUGACAAGTT against Cdc34, the z-score is inactive: 1.43. The result for GGAUUCCUGUACAUAUAUUTT against Ube4b reads inactive: -0.982; that for “GCUCACAAACUGAUUCCUUTT against 2700081O15Rik”, inactive: -0.731; that for GGCGAUAAGACAAAAAUGATT against Myom1, inactive: -0.577. The result for GGUUAAACCCUCUUCUCAUTT against Uhrf2 reads inactive: -0.0111; that for CCUGCUUAGGACCAUCGACTT against Lrrn2, inactive: 1.05; that for “GGCAUACAAACACAAAAUUTT against 1810021J13Rik”, inactive: 0.269. For the sequence GGCAGAUAGUACUAAUGAATT against Spt2, the z-score was inactive: -0.336.

With GCUAAUGAUUUCCGCUUUGTT against AW125391, the z-score is inactive: 2.01. The result for GGAGAUAUUGUAACUCGCCTT against Pcdhgb7 reads inactive: 0.486; that for CCCAACACAAUAUUUGCCATT against Nfyc, inactive: -0.801; that for CGAUUGUUAAAGAGAUCAUTT against Pgk2, inactive: 0.893. As for CCUACAGUUUAUAAGCUUCTT against Olfr877, the figure is inactive: 0.481; as for GCUUGGAUUGAGCUUUACATT against AL024069, inactive: -0.799. The result for GCUUACCUCCCAACUAUCATT against Dkk3 reads inactive: -0.97; that for GGAAAGAUGAGACCACCCGTT against Stau1, inactive: 0.2.

With CCCUGGUGACUACGAGAAUTT against Chrna4, the z-score is inactive: 0.121. As for “GAACGCGCGAGAAAUGUGATT against 2010001J22Rik”, the z-score is inactive: 0.842.
